In the supplement of paper PMC6078165:

System: BT20
Experiment: relative JC-1 red fluorescence (viability) vs pre-drug, coculture with fibroblast (fraction); higher = more viable cancer cells
Experimental: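 JC-1 labelled TNBC cells cocultured 1:1 (1,500 cells each) with CellTrace Violet stained primary or stromal fibroblasts in 384-well plates in FluoroBrite medium, treated with one of 42 anticancer drugs at 0.1, 1, 10 or 100 uM. JC-1 red fluorescence (mitochondrial integrity in cancer cells only) was read by plate reader every 8 h for 72 h. Values are normalised to each well's pre-drug value. The stock of one drug was tenfold lower, so its dose labels may be too high.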

CC(=O)O[C@@]12CO[C@@H]1C[C@H](O)[C@@]1(C)C(=O)[C@H](O)C3=C(C)[C@@H](OC(=O)[C@H](O)[C@@H](NC(=O)OC(C)(C)C)c4ccccc4)C[C@@](O)([C@@H](OC(=O)c4ccccc4)[C@H]21)C3(C)C [Docetaxel]
relative JC-1 red fluorescence
Details | 8 h | 16 h | 24 h | 32 h | 40 h | 48 h | 56 h | 64 h | 72 h
10 µM, coculture fibroblast: C12385 | 0.881 | 0.858 | 0.86 | 0.817 | 0.748 | 0.721 | 0.693 | 0.681 | 0.667
10 µM, coculture fibroblast: H6013 | 0.949 | 0.92 | 0.883 | 0.847 | 0.816 | 0.786 | 0.784 | 0.777 | 0.769
10 µM, coculture fibroblast: H6019 | 0.871 | 0.838 | 0.843 | 0.818 | 0.801 | 0.799 | 0.785 | 0.78 | 0.773
10 µM, coculture fibroblast: H6076 | 0.838 | 0.927 | 0.872 | 0.865 | 0.831 | 0.815 | 0.824 | 0.827 | 0.821
10 µM, coculture fibroblast: H6231 | 0.813 | 0.937 | 0.822 | 0.747 | 0.667 | 0.593 | 0.535 | 0.507 | 0.477
10 µM, coculture fibroblast: HADF | 0.9579 | 0.917 | 0.873 | 0.836 | 0.812 | 0.756 | 0.744 | 0.724 | 0.697
10 µM, coculture fibroblast: HCFa | 0.967 | 0.931 | 0.889 | 0.832 | 0.795 | 0.755 | 0.726 | 0.71 | 0.685
10 µM, coculture fibroblast: HCPF | 0.9733 | 0.902 | 0.857 | 0.82 | 0.778 | 0.7452 | 0.7195 | 0.716 | 0.673
10 µM, coculture fibroblast: HHSteC | 0.948 | 0.933 | 0.901 | 0.835 | 0.822 | 0.789 | 0.752 | 0.729 | 0.705
10 µM, coculture fibroblast: HMF | 0.827 | 0.956 | 0.867 | 0.804 | 0.758 | 0.693 | 0.663 | 0.629 | 0.611
10 µM, coculture fibroblast: HPFa | 0.94 | 0.858 | 0.838 | 0.753 | 0.711 | 0.652 | 0.616 | 0.582 | 0.549
10 µM, coculture fibroblast: HUF | 0.893 | 0.82 | 0.794 | 0.725 | 0.66 | 0.606 | 0.578 | 0.5462 | 0.5302
10 µM, coculture fibroblast: Hs5 | 0.935 | 0.9313 | 0.8751 | 0.835 | 0.7925 | 0.77 | 0.762 | 0.743 | 0.754
10 µM, coculture fibroblast: Hs27A | 0.805 | 0.716 | 0.988 | 0.792 | 0.926 | 0.963 | 0.9361 | 0.891 | 0.834
10 µM, coculture fibroblast: Hs343T | 0.857 | 0.915 | 0.814 | 0.755 | 0.684 | 0.637 | 0.581 | 0.566 | 0.525
10 µM, coculture fibroblast: WS1 | 0.855 | 0.793 | 0.7575 | 0.6981 | 0.638 | 0.602 | 0.563 | 0.526 | 0.51
100 µM, coculture fibroblast: C12385 | 0.877 | 0.817 | 0.749 | 0.683 | 0.631 | 0.591 | 0.555 | 0.519 | 0.499
100 µM, coculture fibroblast: H6013 | 0.9661 | 0.932 | 0.916 | 0.895 | 0.859 | 0.842 | 0.862 | 0.858 | 0.843
100 µM, coculture fibroblast: H6019 | 0.8805 | 0.832 | 0.821 | 0.792 | 0.767 | 0.765 | 0.744 | 0.728 | 0.717
100 µM, coculture fibroblast: H6076 | 0.903 | 0.9397 | 0.851 | 0.799 | 0.749 | 0.713 | 0.7 | 0.709 | 0.704
100 µM, coculture fibroblast: H6231 | 0.844 | 0.914 | 0.809 | 0.762 | 0.723 | 0.685 | 0.66 | 0.641 | 0.637
100 µM, coculture fibroblast: HADF | 0.893 | 0.943 | 0.856 | 0.817 | 0.766 | 0.727 | 0.695 | 0.686 | 0.653
100 µM, coculture fibroblast: HCFa | 0.95 | 0.807 | 0.879 | 0.788 | 0.847 | 0.811 | 0.769 | 0.732 | 0.688
100 µM, coculture fibroblast: HCPF | 0.758 | 0.9065 | 0.801 | 0.749 | 0.699 | 0.656 | 0.614 | 0.614 | 0.574
100 µM, coculture fibroblast: HHSteC | 0.952 | 0.901 | 0.869 | 0.804 | 0.748 | 0.721 | 0.688 | 0.661 | 0.629
100 µM, coculture fibroblast: HMF | 0.876 | 0.8994 | 0.788 | 0.733 | 0.677 | 0.634 | 0.5993 | 0.567 | 0.533
100 µM, coculture fibroblast: HPFa | 0.94677 | 0.878 | 0.871 | 0.774 | 0.755 | 0.702 | 0.669 | 0.641 | 0.606
100 µM, coculture fibroblast: HUF | 0.908 | 0.84 | 0.7829 | 0.703 | 0.647 | 0.6 | 0.572 | 0.541 | 0.5149
100 µM, coculture fibroblast: Hs5 | 0.775 | 0.855 | 0.884 | 0.8214 | 0.763 | 0.703 | 0.657 | 0.63 | 0.614
100 µM, coculture fibroblast: Hs27A | 0.709 | 0.804 | 0.851 | 0.826 | 0.787 | 0.847 | 0.937 | 0.83 | 0.791
100 µM, coculture fibroblast: Hs343T | 0.86 | 0.932 | 0.827 | 0.77 | 0.705 | 0.656 | 0.601 | 0.574 | 0.551
100 µM, coculture fibroblast: WS1 | 0.87 | 0.7983 | 0.736 | 0.679 | 0.627 | 0.592 | 0.539 | 0.507 | 0.479

Values are relative to the signal before dosing, not to a vehicle control; the signal also falls without drug.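 Fibroblast labels denote human fibroblasts, mainly primary ones from uterus (C12385, HUF), lung (H6013), bone (Hs27A), adrenal (HADF) and skin (WS1), plus mammary HMF and breast cancer-associated Hs343T. Cancer cells are basal-like or mesenchymal-like triple-negative breast cancer lines. A hit is a response shift exceeding 3x replicate standard deviation. The tissue of the other fibroblasts is not given here.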
